Results are given in words; binding and its absence hold for the method and conditions named. Some results given as binding are weak or reduced against the parent protein; the word gives no strength.
Target: human IL-13 (human, UniProt P35225 35-146, biotinylated on the Biacore chip)
Assay: IL-13 Biacore

Sequences of proteins named here, by UniProt entry; tags and fusion partners are left off. Residues count along the entry.
UniProt P35225, residues 35-146: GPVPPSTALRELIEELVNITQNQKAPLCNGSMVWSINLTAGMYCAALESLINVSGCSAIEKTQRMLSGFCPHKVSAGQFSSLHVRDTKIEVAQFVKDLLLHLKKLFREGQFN

B1: DOM9-112-210-ASTKGPS-DOM10-416 (bispecific antibody)
chain: EVQLLESGGGLVQPGGSLRLSCAASGFTFRNFGMGWVRQAPGKGLEWVSWIISSGTETYYADSVKGRFTISRDNSKNTLYLQMNSLRAEDTAVYYCAKSLGRFDYWGQGTLVTVSSASTKGPSEVQLLESGGGLVQPGGSLRLSCAASGFTFKGSEMDWVRQAPGKGLEWVSTISADGRETYYADSVKGRFTISRDNSKNTLYLQMNSLRAEDTAVYYCAKSYTSFDYWGQGTLVTVSS
notes: in-line fusion, from pDOM5
B1 was tested, and the binding was “binds”.
